In the M2OR odorant receptor database:
Substitutions are numbered along the chain they refer to. This is a selection; strong and weak results do not stand in their true shares. Calls are pooled over several reports, among them a noisy single-well screen. This is one part of the list.

Chains of the proteins cited; added tags and fusions are not shown. A line that says so, or that is headed by a name, gives the form on record, which may keep a tag or linker.
OR1E2, as listed by the source: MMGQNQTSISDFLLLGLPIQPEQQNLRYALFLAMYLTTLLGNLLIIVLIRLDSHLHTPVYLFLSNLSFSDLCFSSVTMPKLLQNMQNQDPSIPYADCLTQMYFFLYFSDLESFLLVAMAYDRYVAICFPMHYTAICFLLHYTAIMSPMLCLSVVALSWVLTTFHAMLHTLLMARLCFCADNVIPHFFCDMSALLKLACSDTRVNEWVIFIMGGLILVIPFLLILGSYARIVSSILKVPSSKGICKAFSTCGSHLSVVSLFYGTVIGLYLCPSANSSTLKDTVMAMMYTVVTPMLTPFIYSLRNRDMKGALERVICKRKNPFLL

Key:
Conditions in all cases: stereoisomer not certain
OR1C1 (Homo sapiens) = target: T1, OR1C1 (Homo sapiens) (UniProt Q15619)
T1 sequence (whole entry): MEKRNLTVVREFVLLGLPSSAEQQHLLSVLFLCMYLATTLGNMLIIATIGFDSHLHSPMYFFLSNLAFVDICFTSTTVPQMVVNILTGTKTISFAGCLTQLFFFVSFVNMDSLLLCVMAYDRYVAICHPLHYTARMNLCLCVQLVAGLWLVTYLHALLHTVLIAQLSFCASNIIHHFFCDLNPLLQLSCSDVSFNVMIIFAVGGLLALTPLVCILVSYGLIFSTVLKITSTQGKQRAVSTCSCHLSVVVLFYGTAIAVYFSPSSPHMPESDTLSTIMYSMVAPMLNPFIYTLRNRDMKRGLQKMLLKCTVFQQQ
How it was run: (§1)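 Transient luciferase assays in mammalian cell lines were common, though methods varied by source. The values come from published papers and their supplementary material, with extra details from the original authors when needed. Responsive refers to a measured signal the original authors judged statistically different from baseline, and non-responsive (inactive) to the remainder.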

OR1D2 (Homo sapiens) = target: T2, OR1D2 (Homo sapiens) (UniProt P34982)
T2 sequence (whole entry): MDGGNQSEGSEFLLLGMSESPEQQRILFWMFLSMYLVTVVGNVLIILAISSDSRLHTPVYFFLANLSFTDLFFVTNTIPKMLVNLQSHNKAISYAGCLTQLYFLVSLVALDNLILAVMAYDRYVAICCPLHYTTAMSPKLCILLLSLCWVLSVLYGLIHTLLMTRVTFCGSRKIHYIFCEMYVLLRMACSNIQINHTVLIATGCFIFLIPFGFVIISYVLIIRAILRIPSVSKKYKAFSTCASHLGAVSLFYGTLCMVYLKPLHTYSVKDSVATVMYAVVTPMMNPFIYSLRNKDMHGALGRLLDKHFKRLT
How it was run: as §1

OR1D5 (Homo sapiens) = target: T3, OR1D5 (Homo sapiens) (UniProt P58170)
T3 sequence (whole entry): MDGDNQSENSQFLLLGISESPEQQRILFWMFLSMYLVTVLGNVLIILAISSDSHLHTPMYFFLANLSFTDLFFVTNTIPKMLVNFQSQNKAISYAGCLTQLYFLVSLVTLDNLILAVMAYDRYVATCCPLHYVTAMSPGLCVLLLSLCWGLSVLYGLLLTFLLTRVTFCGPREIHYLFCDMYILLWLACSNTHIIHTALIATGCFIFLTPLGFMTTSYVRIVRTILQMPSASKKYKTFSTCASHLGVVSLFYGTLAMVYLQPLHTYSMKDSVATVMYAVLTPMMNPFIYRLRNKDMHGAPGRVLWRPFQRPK
How it was run: as §1

OR1D5 = tested on: T4, OR1D5
T4 sequence (whole entry): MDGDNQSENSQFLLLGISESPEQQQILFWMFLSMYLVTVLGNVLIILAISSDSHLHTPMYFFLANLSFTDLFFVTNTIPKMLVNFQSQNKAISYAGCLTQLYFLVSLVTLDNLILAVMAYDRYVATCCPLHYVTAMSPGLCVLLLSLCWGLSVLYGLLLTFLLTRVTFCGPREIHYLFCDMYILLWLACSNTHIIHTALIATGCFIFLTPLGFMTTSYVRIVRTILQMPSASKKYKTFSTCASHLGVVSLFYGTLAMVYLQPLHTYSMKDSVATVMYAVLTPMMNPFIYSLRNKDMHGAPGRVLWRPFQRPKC
How it was run: as §1

OR1E1 [1] = tested on: T5, OR1E1
T5 sequence (whole entry): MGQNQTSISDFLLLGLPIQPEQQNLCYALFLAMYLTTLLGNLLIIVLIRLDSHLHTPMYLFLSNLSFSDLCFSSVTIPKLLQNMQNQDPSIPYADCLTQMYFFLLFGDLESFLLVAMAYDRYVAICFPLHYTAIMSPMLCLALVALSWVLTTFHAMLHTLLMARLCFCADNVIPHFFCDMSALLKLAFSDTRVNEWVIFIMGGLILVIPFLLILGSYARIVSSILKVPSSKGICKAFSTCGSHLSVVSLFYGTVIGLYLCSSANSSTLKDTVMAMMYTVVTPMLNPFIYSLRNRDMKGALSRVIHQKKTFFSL
How it was run: as §1

OR1E1 [2] = tested on: T6, OR1E1; remark: listed apart in the source
T6 sequence (whole entry): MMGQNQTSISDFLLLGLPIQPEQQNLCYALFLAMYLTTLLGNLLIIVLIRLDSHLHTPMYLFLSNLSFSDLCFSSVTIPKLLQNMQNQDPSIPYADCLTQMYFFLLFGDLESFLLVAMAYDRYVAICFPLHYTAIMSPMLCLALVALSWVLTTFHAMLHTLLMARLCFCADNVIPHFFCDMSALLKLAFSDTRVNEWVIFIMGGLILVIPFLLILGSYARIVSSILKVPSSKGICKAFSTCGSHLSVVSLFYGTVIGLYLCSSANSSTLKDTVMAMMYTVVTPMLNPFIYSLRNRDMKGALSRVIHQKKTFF
How it was run: as §1

OR1E2 (Homo sapiens) = target: T7, OR1E2 (Homo sapiens) (UniProt P47887)
T7 sequence (whole entry): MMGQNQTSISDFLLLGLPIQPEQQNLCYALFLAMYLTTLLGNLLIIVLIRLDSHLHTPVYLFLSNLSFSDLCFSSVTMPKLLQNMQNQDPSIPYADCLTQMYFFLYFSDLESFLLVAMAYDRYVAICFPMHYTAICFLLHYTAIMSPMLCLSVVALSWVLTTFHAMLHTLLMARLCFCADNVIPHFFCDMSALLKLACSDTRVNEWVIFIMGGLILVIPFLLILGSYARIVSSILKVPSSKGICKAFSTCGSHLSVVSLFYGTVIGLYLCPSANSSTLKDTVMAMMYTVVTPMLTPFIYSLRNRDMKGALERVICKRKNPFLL
How it was run: as §1

OR1E2 = tested on: T8, OR1E2
T8 sequence (whole entry): T7 sequence (whole entry) with C27R
How it was run: as §1
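Note: active if original authors judged signal statistically different from baseline.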

Compound | odorant receptor agonist call (OR1C1 (Homo sapiens)) | odorant receptor agonist call (OR1D2 (Homo sapiens)) | odorant receptor agonist call (OR1D5 (Homo sapiens)) | odorant receptor agonist call (OR1D5) | odorant receptor agonist call (OR1E1 [1]) | odorant receptor agonist call (OR1E1 [2]) | odorant receptor agonist call (OR1E2 (Homo sapiens)) | odorant receptor agonist call (OR1E2)
CCC1(O)C2(C)CCC(C2)C1(C)C (configuration not stated) | inactive | inactive | inactive | inactive | inactive | inactive | inactive | inactive
COC(=O)c1ccccc1 | active | inactive | inactive |  | inactive | inactive | inactive | inactive
CCCCO | inactive | inactive | inactive | inactive | inactive | inactive | inactive | inactive
CC12C=CCC1C1CCC3=CC(=O)CCC3(C)C1CC2 (configuration not stated) | inactive | inactive | inactive | inactive | inactive | inactive | inactive | inactive
COc1cc(C=O)ccc1O | inactive | inactive | inactive | inactive | inactive | inactive | inactive | inactive
COc1cc(C)ccc1O | inactive | inactive | inactive | inactive | inactive | inactive | inactive | inactive
CC(C)(O)CCCC1=CCC(C=O)CC1 (configuration not stated) |  |  |  | inactive |  |  |  | 
CC1=NC(C)SC1C (configuration not stated) | inactive | inactive | inactive |  | inactive | inactive | inactive | inactive
CC(=O)C(C)=O | inactive | inactive | inactive | inactive | inactive | inactive | inactive | inactive
CCCCCCCC=O | inactive | inactive | inactive | inactive | inactive | inactive | inactive | inactive
CCCC(=O)O | inactive | inactive | inactive | inactive | inactive | inactive | inactive | inactive
O=C1CCCCCCCCCCCC(=O)OCCO1 | inactive | inactive | active | inactive | inactive | inactive | inactive | inactive
CCCCCCCCCCC=O | inactive | inactive | inactive | inactive | inactive | inactive | inactive | inactive
CC(=O)OC(C)(C)C1CC=C(C)CC1 (configuration not stated) | inactive | inactive | inactive | inactive | inactive | inactive | inactive | inactive
C=C(C)C1CCC2=CC(=O)CC(C)C2(C)C1 (configuration not stated) |  |  |  | inactive |  |  |  | 
CCCCCC(C)=O | inactive | inactive | inactive |  | inactive | inactive | inactive | inactive
C=CCc1ccc(OC)c(OC)c1 | inactive | inactive | inactive | inactive | inactive | inactive | inactive | inactive
COC(=O)c1ccccc1O | inactive | inactive | inactive | inactive | inactive | inactive | inactive | inactive
C=CCSCC=C | inactive | inactive | inactive | inactive | inactive | inactive | inactive | inactive
C=CC(C)(O)CCC=C(C)C (configuration not stated) | active | inactive | inactive | inactive | inactive | inactive | inactive | inactive
O=C1CCCCCCCCCCCCCCO1 | inactive | inactive | inactive | inactive | inactive | inactive | inactive | inactive
O=C1CCCCC1 | inactive | inactive | inactive |  | inactive | inactive | inactive | inactive
CC(=O)c1ccccc1 | inactive | inactive | inactive |  | inactive | inactive | inactive | inactive
CC1CCC(C(C)C)C(O)C1 (configuration not stated) | inactive | inactive | inactive | inactive | inactive | inactive | active | inactive
CC1COCc2cc3c(cc21)C(C)(C)C(C)C3(C)C (configuration not stated) | active | active | active | active | active | inactive | active | active
CC(C)CCC(=O)O | inactive | inactive | inactive | inactive | inactive | inactive | inactive | inactive
CCCCCCOC(=O)CCC | inactive | inactive | inactive | inactive | inactive | inactive | inactive | inactive

Two entries drawn at random from the list so far, as already listed:
Compound | odorant receptor agonist call (OR1C1 (Homo sapiens)) | odorant receptor agonist call (OR1D2 (Homo sapiens)) | odorant receptor agonist call (OR1D5 (Homo sapiens)) | odorant receptor agonist call (OR1D5) | odorant receptor agonist call (OR1E1 [1]) | odorant receptor agonist call (OR1E1 [2]) | odorant receptor agonist call (OR1E2 (Homo sapiens)) | odorant receptor agonist call (OR1E2)
CC1CCC(C(C)C)C(O)C1 (configuration not stated) | inactive | inactive | inactive | inactive | inactive | inactive | active | inactive
CCCCCC(C)=O | inactive | inactive | inactive |  | inactive | inactive | inactive | inactive
